# PubChem BioAssay AID652272, Drosophila RNAi Screening Center, 2013
# Screen: 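Genome-wide knock-down search for components of Hedgehog signalling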 (primary screen)
# Cells: Drosophila clone 8 (Cl8) cells
# Knock-down reagent: long dsRNA against Drosophila genes
# Measured: 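Firefly light from a Hedgehog-responsive ptc promoter reporter and Renilla reference light, both read on a plate reader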
# Scale: firefly Hh reporter signal: higher = more ptc reporter light; Renilla reference signal: higher = more Renilla control light
# Active means: 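Hit when the z-score averaged over two replicates is under -2 or over +3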
# Meaning of the calls: active = hit: reporter lowered or raised; inactive = not a hit
# The screen tested about 21,000 reagents; this is an unselected part of those with a known target gene and a result. Over the whole deposit, 503 (2.4%) got an active call. 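Raw plate light values, not normalised; calls rest on replicate z-scores that were not deposited; hits include reporter decreases as well as increases.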 Unmarked entries are inactive. Reagents against one gene are numbered here. Not given: the amount of reagent, the time to read-out.
predicted target,reagent,"firefly Hh reporter signal, replicate 1","firefly Hh reporter signal, replicate 2","firefly Hh reporter signal, replicate 3","Renilla reference signal, replicate 1","Renilla reference signal, replicate 2"
CG1840,1,1.28e5,1.02e5,,2971,2403
CG7218,1,1.13e5,47542,,5085,2252
CG14253,1,80508,77937,,2744,2080
twy (twitchy),1,49540,44407,72354,4889,6352
CG42233,1,96135,2.38e5,,3841,8539
CG42233,2,82054,2.09e5,,2976,6710
Clbn (Caliban),1,5.38e5,74550,,27319,2468
Tsp42A (Tetraspanin 42A),1,94112,76429,,1780,5769
Sms (Spermine synthase),1,71943,46872,42762,4310,2889
key (kenny),1,1.32e5,1.03e5,,4996,2381
CG12129,1,63216,45628,,2903,2048
Ccp84Ab,1,81075,1.07e5,,3840,3712
bdg (bedraggled),1,52602,74464,,3180,3105
CG34050 (retired record),1,46649,77856,,1740,4509
CG32147,1,2.47e5,,,5492,
CG7924,1,93920,61707,,3387,2597
SkpB (SKP1-related B),1,1.29e5,74534,,2342,4151
EMRE (Essential MCU regulator),1,1.23e5,64341,,3754,5142
CG4570,1,38813,68249,,1068,2185
Yp1 (Yolk protein 1),1,68020,1.42e5,,1435,5095
CG34247,1,1.73e5,,,7191,4811
RpS18 (Ribosomal protein S18),1,26656 (active),20106,,1258,2388
Eno (Enolase),1,1.35e5,1.15e5,,3287,3175
CG12861,1,1.51e5,74087,,3802,5963
CG4476,1,28716,55866,,2594,4258
l(3)76BDm (lethal (3) 76BDm),1,73625,1.04e5,,3147,3991
CG12523,1,62568,62729,5.28e5,6603,2707
aly (always early),1,1.42e5,79880,,4460,5421
Nt5a (5' nucleotidase A),1,1.04e5,93712,,5120,4427
CG15545,1,74032,1.66e5,,1863,6936
Hsf (Heat shock factor),1,1.56e5,1.10e5,,5603,3747
Acox3 (Acyl-CoA oxidase 3),1,63301,21528,,1019,2784
CG3650,1,73900,47988,,1659,3434
CG14606,1,76784,1.08e5,,2804,3131
CG10887,1,8.16e5,2.02e5,,41206,5925
twz (tiwaz),1,66104,41164,,1968,3571
Peritrophin-15b,1,1.07e5,79196,,2388,7525
CG10089,1,56373,20359,38144,2724,3018
CG10089,2,56726,41120,53729,4066,3290
CG15317,1,98608,2.48e5,,3344,9075
Clc (Clathrin light chain),1,99827,94087,,3664,3532
Prat (Phosphoribosylamidotransferase),1,1.29e5,1.30e5,,3965,3766
CG17683,1,64292,2.36e5,,1948,9681
CG13587,1,88689,95446,,1943,7211
CG14321,1,5.92e5,98296,,27944,2773
RpS7 (Ribosomal protein S7),1,25682,43858,,1250,1955
polo,1,1.92e5,7.85e5,1.46e5,6508,47228
eco (Establishment of cohesion),1,97856,54854,,4001,2528

The list goes on (5 carried over from the part before).
predicted target,reagent,"firefly Hh reporter signal, replicate 1","firefly Hh reporter signal, replicate 2","firefly Hh reporter signal, replicate 3","Renilla reference signal, replicate 1","Renilla reference signal, replicate 2"
CG13587,1,88689,95446,,1943,7211
CG14321,1,5.92e5,98296,,27944,2773
RpS7 (Ribosomal protein S7),1,25682,43858,,1250,1955
polo,1,1.92e5,7.85e5,1.46e5,6508,47228
eco (Establishment of cohesion),1,97856,54854,,4001,2528
MFS14 (Major Facilitator Superfamily Transporter 14),1,1.59e5,1.17e5,,6532,4341
CG17660,1,1.13e5,94791,,4677,3920
cmet (CENP-meta),1,1.30e5,69402,,3367,5856
CG6429,1,69925,76051,,2107,5602
galla-1,1,70186,30199,,3056,3426
CG14743,1,81056,33444,,1773,2844
CG12259,1,65804,1.05e5,,2848,3425
Rop (Ras opposite),1,91595,52491,,3643,2052
RpS21 (Ribosomal protein S21),1,3.31e5 (active),39768,,3296,3296
CG4950,1,1.22e5,,,2545,3827
CG18823,1,71304,1.60e5,,1540,6070
Dgkepsilon (Diacyl glycerol kinase epsilon),1,72503,63800,,3270,2448
CG9667,1,66157 (active),64084,,4096,2870
Patj,1,92848,63504,,4837,3104
chas (chascon),1,97105,2.19e5,,3488,8387
chas (chascon),2,1.02e5,2.49e5,,3776,9879
Git (G protein-coupled receptor kinase interacting ArfGAP),1,69397,36644,,2452,1488
Oseg6 (Outer segment 6),1,81864,72790,,1916,4497
CG13738,1,38784,25645,30487,4472,1306
Dpm1 (Dolichyl-phosphate mannosyltransferase subunit 1),1,86212,43064,,2205,4129
CG3494,1,82520,81168,,2048,5985
RpL10Ab (Ribosomal protein L10Ab),1,45298 (active),24800,22727,6378,2826
ReepA (Receptor expression enhancing protein A),1,85146,65904,,3856,2572
lqfR (liquid facets-Related),1,1.09e5,67120,,3300,2005
lqfR (liquid facets-Related),2,1.08e6,2.03e5,,56635,4634
